Results: US20060258685A1, “Substituted pyrazolopyrimidines, methods for the production thereof, use of the same for controlling pathogenic fungi, and agents containing said compounds” (priority 2003, published 2006)
Some results were stated once for a whole list of compounds, not compound by compound.

Tested on: Botrytis cinerea
Assay: Activity against gray mold on capsicum leaves caused by Botrytis cinerea, protective application
Assay type: in vivo
Details: 250 ppm active compound, sprayed to runoff, capsicum seedlings, assessed after 5 days, untreated plants 90% infected

SMILES: CC1CCN(c2c(-c3c(F)cc(F)cc3F)c(Cl)nc3c(Cl)cnn23)CC1 [III-1, 3,5-Dichloro-7-(4-methylpiperidin-1-yl)-6-(2,4,6-trifluorophenyl)-pyrazolo[1,5-a]pyrimidine]
- extent of the fungal infection on the leaves, determined visually: at most 7%
